From US20120045437A1 (BOARD OF REGENTS OF THE UNIVERSITY OF OKLAHOMA, published 2012) come the findings set out here.

For this assay, the target named is endogenous bovine LRP6 (bovine). Description: Western blot, total cell lysates. (In general: Immunoblotting shows a protein as a band on a membrane.)

These are yes or no findings as the source states them, for the method shown. A result given as binding can be weak or reduced; the word gives no strength.

B1: Anti-LRP6-1 (antibody, mouse IgG2, V domains shown)
VH: EVQLVESGGGLVQSKGSLKLSCAASGFTFNTYAMNWVRQAPGKGLEWVGRIRSKYNNYVTYYGDSVKDRFTISRDDSQSMLYLQMNNLKTEDTAMYYCVRQGRGSYAMDYWGQGTSVTVSS
VL: NIVMTQSPKSMSMSVGERVTLSCKASENVGTYVSWYQQKPEQSPKLLIYGASNRYTGVPDRFIGSGSATDFTLTIRSVQAEDLADYHCGQSYSYPTFGAGTKLELKR
notes: also called mAb2F1; 2F1
For the molecule B1, the binding result is reported as “binds”.
